Data as given in PubChem BioAssay AID1259405 (NCATS, 2018).
The whole screen tested about 50,000 reagents; shown is a part drawn at random. Over the whole deposit, about 4,000 (8%) are marked active. 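Mouse siRNA library applied to hamster cells; one well for each siRNA.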 Reagents against one gene are numbered here. Reagent sequences are not shown.

Test: 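Knock-downs that lift recombinant protein yield in hamster ovary cells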 (primary screen)
Cells: Chinese hamster CHO-K1 ovary cells with stable secreted eGFP expression
Knock-down reagent: single siRNA against mouse genes, 0.8 pmol siRNA per well (2 µl of 400 nM stock)
Timing: 3 days
Detection: 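Per-well intracellular GFP measured by laser scanning cytometry, plus viability from ATP luminescence, each relative to plate median of non-targeting control wells, in %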
Direction: GFP, % of control: higher = more GFP per well, higher productivity; viability (ATP), % of control: higher = more viable cells (more ATP)
Rule for the call: 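a knock-down is called active if GFP reaches 120% or more of non-targeting control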

gene	siRNA no.	GFP, % of control	viability (ATP), % of control	call
Tas1r1 (taste receptor, type 1, member 1)	1	81.1	61.4	inactive
Tas1r1 (taste receptor, type 1, member 1)	2	112	93.8	inactive
Tas1r1 (taste receptor, type 1, member 1)	3	64.5	66.3	inactive
Pik3cb	1	32.1	57.9	inactive
Ints7 (integrator complex subunit 7)	1	86.6	76	inactive
Ints7 (integrator complex subunit 7)	2	96.6	99.4	inactive
Ints7 (integrator complex subunit 7)	3	67	63	inactive
Ell3 (elongation factor RNA polymerase II-like 3)	1	72.8	91.3	inactive
Ell3 (elongation factor RNA polymerase II-like 3)	2	112	64.4	inactive
Ell3 (elongation factor RNA polymerase II-like 3)	3	94.7	85.1	inactive
Zc3h12a (zinc finger CCCH type containing 12A)	1	38.5	35.4	inactive
Zc3h12a (zinc finger CCCH type containing 12A)	2	51.3	66.9	inactive
Zc3h12a (zinc finger CCCH type containing 12A)	3	153	142	active
Rpl12 (ribosomal protein L12)	1	55.7	22.7	inactive
Rpl12 (ribosomal protein L12)	2	57.2	22.9	inactive
Rpl12 (ribosomal protein L12)	3	150	69	active
Cyp4f15 (cytochrome P450, family 4, subfamily f, polypeptide 15)	1	41.2	67.7	inactive
Cyp4f15 (cytochrome P450, family 4, subfamily f, polypeptide 15)	2	114	105	inactive
Cyp4f15 (cytochrome P450, family 4, subfamily f, polypeptide 15)	3	96.3	95.1	inactive
Kcnv1 (potassium channel, subfamily V, member 1)	1	129	92	active
Kcnv1 (potassium channel, subfamily V, member 1)	2	101	65	inactive
Kcnv1 (potassium channel, subfamily V, member 1)	3	76.7	77.6	inactive
Or8b51 (olfactory receptor family 8 subfamily B member 51)	1	41.1	37.6	inactive
Or8b51 (olfactory receptor family 8 subfamily B member 51)	2	90.5	56	inactive
Or8b51 (olfactory receptor family 8 subfamily B member 51)	3	71.3	62.1	inactive
Exd1 (exonuclease 3'-5' domain containing 1)	1	56.2	63.8	inactive
Exd1 (exonuclease 3'-5' domain containing 1)	2	88	101	inactive
Exd1 (exonuclease 3'-5' domain containing 1)	3	114	121	inactive
Cxcr6 (C-X-C motif chemokine receptor 6)	1	114	78.4	inactive
Cxcr6 (C-X-C motif chemokine receptor 6)	2	74.5	72.6	inactive
Cxcr6 (C-X-C motif chemokine receptor 6)	3	68	62.2	inactive
Fbxo40 (F-box protein 40)	1	72.9	77.2	inactive
Fbxo40 (F-box protein 40)	2	74.5	44.9	inactive
Fbxo40 (F-box protein 40)	3	116	60.3	inactive
Itgb8 (integrin beta 8)	1	50.8	50.1	inactive
Itgb8 (integrin beta 8)	2	75.1	50.9	inactive
Itgb8 (integrin beta 8)	3	75.1	96.1	inactive
Kcns2 (K+ voltage-gated channel, subfamily S, 2)	1	79.3	112	inactive
Kcns2 (K+ voltage-gated channel, subfamily S, 2)	2	101	70.8	inactive
Or52n3 (olfactory receptor family 52 subfamily N member 3)	1	93.2	58.5	inactive
Or52n3 (olfactory receptor family 52 subfamily N member 3)	2	78.6	83.5	inactive
Or52n3 (olfactory receptor family 52 subfamily N member 3)	3	74.6	103	inactive
Abhd4 (abhydrolase domain containing 4)	1	78.3	49.5	inactive
Abhd4 (abhydrolase domain containing 4)	2	88	73.6	inactive
Abhd4 (abhydrolase domain containing 4)	3	84.2	78.8	inactive
Vamp3 (vesicle-associated membrane protein 3)	1	57	83.1	inactive
Vamp3 (vesicle-associated membrane protein 3)	2	49.1	42	inactive
Vamp3 (vesicle-associated membrane protein 3)	3	92.7	76.9	inactive
Agpat5 (1-acylglycerol-3-phosphate O-acyltransferase 5)	1	97.6	90.6	inactive
Agpat5 (1-acylglycerol-3-phosphate O-acyltransferase 5)	2	44.6	90.7	inactive
Agpat5 (1-acylglycerol-3-phosphate O-acyltransferase 5)	3	73.1	90.8	inactive
Cyp2s1 (cytochrome P450, family 2, subfamily s, polypeptide 1)	1	83.1	70	inactive
Cyp2s1 (cytochrome P450, family 2, subfamily s, polypeptide 1)	2	106	107	inactive
Cyp2s1 (cytochrome P450, family 2, subfamily s, polypeptide 1)	3	67.5	74.8	inactive
Cst5 (cystatin D)	1	52.9	74.6	inactive
Cst5 (cystatin D)	2	108	70.4	inactive
Cst5 (cystatin D)	3	60.7	40	inactive

Entries above whose gene name begins with R or r (3):
gene	siRNA no.	GFP, % of control	viability (ATP), % of control	call
Rpl12 (ribosomal protein L12)	1	55.7	22.7	inactive
Rpl12 (ribosomal protein L12)	2	57.2	22.9	inactive
Rpl12 (ribosomal protein L12)	3	150	69	active
